Measured values: PubChem BioAssay AID2685 (National Center for Advancing Translational Sciences (NCATS), 2010)
This is one part of the list. The main result of the screen is listed elsewhere. These columns were measured beside it and carry no call. Compounds called inactive in the main read-out are mostly missing here. Potencies come from curve fits of mixed quality, noted in brackets.

Experiment: qHTS Assay for Lipid Storage Modulators in Drosophila S3 Cells;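 on cell number change: cells counted by Cell Tracker Red CMTPX staining in the red channel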
Conditions: BODIPY lipid droplet fluorescence, 18-24 h; for cell number change: measured here: cell count max response, cells fed with added oleic acid
Procedure, shortened: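 Drosophila S3 cells loaded with oleic acid (400 uM, as added) and compounds at several concentrations; lipid droplets imaged by 488-nm laser-scanning cytometry, 500–530 nm intensity and object ratio to cell channel. Percent activity normalized to 20 uM Triacsin C.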

[1] = measured here: lipid fluorescence (Fed channel) AC50, cells fed with added oleic acid
[2] = measured here: cell number channel AC50, cells fed with added oleic acid

SMILES	AC50 [1]	cell number change [%]	AC50 [2]
CCOc1ccc(OCCC(=O)N(CC)CC(=O)Nc2ccccc2C(F)(F)F)cc1	29.1 µM [rising, single point]	–	–
COc1ccc(Br)cc1-c1nc(C)c(C(C)=O)n1O	–	-1.6	–
CC(C)Cn1nnc2c(=O)oc3ccccc3c21	0.00411 µM [falling, full curve, poor fit]	-0.862	–
O=C(NNC(=O)C(O)(c1ccccc1)c1ccccc1)C1CC1	–	-28.2	–
Cc1cc(C)c(C)c(S(=O)(=O)NCc2ccc(C(=O)NCC3CCCO3)cc2)c1C (stereo not drawn)	0.58 µM [falling, full curve]	-54.3	2.06 µM [falling, full curve]
CSCCC1NC2(C(=O)Nc3c(Cl)cccc32)[C@@H]2C(=O)N(C3CCCC3)C(=O)[C@H]12 (stereo partly drawn)	1.84 µM [rising, partial curve, poor fit]	10.4	–
CC(=O)N1c2ccc(S(=O)(=O)N(C)CC(=O)Nc3ccccc3C)cc2CC1C (stereo not drawn)	–	35.6	29.1 µM [rising, single point]
Cc1cc(C(=O)OCC(=O)Nc2ccc(F)c(F)c2)c(C)o1	–	64.5	29.1 µM [rising, single point]
CCOC(=O)C1(Cc2cccc(OC)c2)CCCN(C(=O)c2cc(C)oc2C)C1 (stereo not drawn)	6.51 µM [rising, single point]	25.4	–
COc1ccccc1-c1c(C)oc2c(CN3CCN(CCO)CC3)c(O)ccc2c1=O	–	-4.04	–
COc1ccccc1NC(=O)Cc1nc(CCl)cs1	23.1 µM [rising, partial curve]	54.9	14.6 µM [rising, partial curve, poor fit]
C/C(=N\NC(=O)c1ccccc1F)c1ccc2c(c1)Nc1ccccc1S2	16.4 µM [falling, partial curve, poor fit]	-30.8	14.6 µM [falling, partial curve]
COc1cccc(C2c3[nH]c4ccccc4c3CCN2C(=O)c2ccccc2F)c1OC (stereo not drawn)	20.6 µM [rising, single point]	-4.99	–
CCOc1ccccc1NC(=O)c1cnc2n(c1=O)CCS2	–	-15	–
CN(C)S(=O)(=O)c1ccc(N2CCCC2)c(C(=O)OCC(=O)NC2(C#N)CCCCC2)c1	29.1 µM [rising, single point]	27.1	–
Cc1ccc2nc(NC(=O)C(NS(=O)(=O)c3cccc4nsnc34)C(C)C)sc2c1 (stereo not drawn)	7.31 µM [falling, partial curve, poor fit]	-29.1	–
CCOC(=O)C1=NN(C(=O)Nc2cccc(C(F)(F)F)c2)C2C(=O)N(c3cccc(C(F)(F)F)c3)C(=O)C12 (stereo not drawn)	23.1 µM [falling, partial curve]	-72	23.1 µM [falling, partial curve]
Cc1oc(C(=O)O)cc1COc1ccc2c3c(c(=O)oc2c1C)CCC3	–	0.0477	–
CCOc1ccc(OCCC(=O)N(CCC(C)C)c2c(N)n(Cc3ccccc3)c(=O)[nH]c2=O)cc1	–	8.79	0.0651 µM [falling, full curve, poor fit]
Cc1ccnc(NC(=O)CCC(=O)N(CC(=O)NCCc2ccccc2)Cc2cccs2)c1	16.4 µM [falling, single point]	-48.4	18.4 µM [falling, single point]

SMILES	AC50 [1]	cell number change [%]	AC50 [2]
CCC(O)(CC)C(=O)N=Nc1c(O)[nH]c2ccccc12	6.51 µM [falling, partial curve, poor fit]	10.3	0.651 µM [falling, partial curve]
O=c1[nH]c(N/N=C/c2cc3c(cc2[N+](=O)[O-])OCO3)nc2ccccc12	0.58 µM [rising, full curve, poor fit]	17	–
O=C(Cc1ccccc1)Nc1nc(-c2ccc(F)c(F)c2)cs1	–	179	20.6 µM [rising, partial curve]
Cc1ccc(C(C)C)c(OCCNC(=O)c2ccccc2O)c1	29.1 µM [falling, single point]	-10.1	–
COc1ccc(CNC(=O)c2ccccc2SC)cc1	–	14.8	–
Oc1ccc(CCNc2ncnc3ccc(Cl)cc23)cc1	3.66 µM [falling, full curve]	-8.38	–
Cc1cc2oc3c(c(=O)c2cc1C)C(c1cccc(Br)c1)N(Cc1ccco1)C3=O (stereo not drawn)	1.3 µM [rising, full curve, poor fit]	1.13	–
Cc1cccc(-c2sc(Nc3ccccc3)n[n+]2-c2ccc(F)cc2)c1	29.1 µM [rising, single point]	32.7	–
COc1ccc(/C=N/NC(=O)CN2CCCC2)cc1	23.1 µM [falling, single point]	11.3	–
COc1cc(OC)c(NC(=O)c2sc3ncn(CC(=O)N4CCN(c5ccccn5)CC4)c(=O)c3c2C)cc1Cl	29.1 µM [rising, single point]	0.943	–
O=C(COC(=O)c1cc(S(=O)(=O)N2CCOCC2)c(Cl)cc1Cl)NC1CC1	0.82 µM [rising, full curve, poor fit]	-19.7	–
CCCC1=Nc2cc(C(=O)NCCN3CCCC3)ccc2Sc2ccccc21	–	14.6	–
O=C(/C=C/c1cccc([N+](=O)[O-])c1)NCCSc1ccccc1	–	-9.28	–
CC1=C(C(=O)OCC2CCCO2)C(c2ccc(F)cc2)NC(=O)N1 (stereo not drawn)	–	-3.24	–
CCCC(=O)OC(C(=O)Nc1cc(C(F)(F)F)ccc1Cl)c1ccccc1 (stereo not drawn)	25.9 µM [rising, single point]	3.68	–
Cc1cc(=O)oc2c(C)c(OC(C)C(=O)N3CC[C@@]4(O)CCCC[C@H]4C3)ccc12 (stereo partly drawn)	0.00517 µM [falling, full curve, poor fit]	–	–
CCC(C)N1CCN(S(=O)(=O)c2ccc3ccccc3c2)CC1 (stereo not drawn)	14.6 µM [rising, single point]	18.8	–
CCN1CCN(C(CNS(=O)(=O)c2cccs2)c2cccnc2)CC1 (stereo not drawn)	–	6.01	–
O=S(=O)(NC1CC1)c1cccc(S(=O)(=O)N2CCCC2)c1	–	32.3	–
CC(C)(C)c1ccc(OC(=O)Nc2ccc(O)c(C(=O)O)c2)cc1	25.9 µM [rising, single point]	0.49	–

Entries of single compounds as entered above. Order of values: AC50 [1]	cell number change [%]	AC50 [2]
`COc1ccc(/C=N/NC(=O)CN2CCCC2)cc1` in the list: 23.1 µM [falling, single point]	11.3	–
`Cc1cc(=O)oc2c(C)c(OC(C)C(=O)N3CC[C@@]4(O)CCCC[C@H]4C3)ccc12` (stereo partly drawn) in the list: 0.00517 µM [falling, full curve, poor fit]	–	–
